For the experiment, the target named is CD95-His (Sino Biological) (UniProt P25445). Nature of the experiment: native gel or EMSA; blue native PAGE (BN-PAGE); 100 ng CD95-His alone or with 10x molar excess of IZ-CD95L or FLAG-CD95L; 4 °C; blot probed with anti-CD95 antibody (clone DX2); both purified. For orientation: In EMSA bound probe runs differently from free probe, usually more slowly.

Sequences of proteins named here, by UniProt entry; tags and fusion partners are left off. Residues count along the entry.
UniProt P25445, residues 26-173: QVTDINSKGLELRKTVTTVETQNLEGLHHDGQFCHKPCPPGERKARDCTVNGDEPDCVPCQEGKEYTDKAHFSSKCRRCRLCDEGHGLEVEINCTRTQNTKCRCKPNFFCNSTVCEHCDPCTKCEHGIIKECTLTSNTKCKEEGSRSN
UniProt P48023, residues 130-281: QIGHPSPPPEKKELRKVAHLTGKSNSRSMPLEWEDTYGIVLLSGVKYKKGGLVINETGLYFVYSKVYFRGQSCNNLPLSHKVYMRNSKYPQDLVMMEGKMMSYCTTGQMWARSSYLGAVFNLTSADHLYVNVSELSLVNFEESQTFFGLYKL

No constants are given. Whether binding was seen depends on the method and setting. Some results given as binding are weak or reduced against the parent protein; the word gives no strength.

On to “CD95-His (Sino Biological) (from UniProt P25445 26-173) (receptor)”, for which the binding result is “binds”.
On to “FLAG-CD95L (Enzo) (from UniProt P48023 130-281) (ligand)”, for which the binding entry was “binds”.
